Test results from PubChem BioAssay AID873 (PCMD, 2007).
Only a part is listed here, and it is no random draw. Active and inactive are the calls of the source.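 Rule for the calls: active = inhibition of 40% or more; inactive = the rest.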

By UniProt entry, the sequences of proteins in these tests, tags left out.
UniProt Q9Y337, whole entry, looked up: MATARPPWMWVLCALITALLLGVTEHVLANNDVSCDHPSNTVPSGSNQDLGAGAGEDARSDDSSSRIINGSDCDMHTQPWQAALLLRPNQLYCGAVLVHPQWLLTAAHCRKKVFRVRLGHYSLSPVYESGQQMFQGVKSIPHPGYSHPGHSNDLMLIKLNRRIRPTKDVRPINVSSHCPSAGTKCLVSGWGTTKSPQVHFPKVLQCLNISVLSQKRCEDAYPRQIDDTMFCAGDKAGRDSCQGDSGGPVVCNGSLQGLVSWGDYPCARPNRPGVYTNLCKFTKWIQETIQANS

The molecules below were run against Kallikrein-5 (Homo sapiens) (UniProt Q9Y337) (assay: human KLK5 protease inhibitors, primary screen, biochemical, 1536-well (AID 873;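 note: 0% = enzyme controls without compound and 100% = no-enzyme blanks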)). Details: recombinant hK5, fluorogenic AMC substrate cleavage; at 5 µM; stronger effect = higher value.

SMILES | inhibition
Cc1c(-c2ccc(F)cc2)nc(N)c(C#N)c1-c1cccnc1 | active: 42%
CCOCCCNC(=S)NCCCNc1nc2c(C)c(C)ccc2cc1C#N | active: 47.9%
